# Laboratory results taken from the supplement of paper PMC10849652.
# Amino acid sequences for entries named in this document (tags omitted). A change or cut given only in a name is not applied to a line headed by its entry.
# UniProt Q53S58: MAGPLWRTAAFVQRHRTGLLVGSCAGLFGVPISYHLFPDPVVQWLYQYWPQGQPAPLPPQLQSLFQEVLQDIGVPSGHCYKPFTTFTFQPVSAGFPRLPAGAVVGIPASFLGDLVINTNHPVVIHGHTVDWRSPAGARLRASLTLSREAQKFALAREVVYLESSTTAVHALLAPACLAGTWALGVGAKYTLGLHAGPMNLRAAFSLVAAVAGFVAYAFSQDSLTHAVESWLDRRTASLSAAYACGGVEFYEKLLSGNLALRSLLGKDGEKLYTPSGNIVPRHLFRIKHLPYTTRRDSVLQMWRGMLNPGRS
# UniProt Q9H7F4: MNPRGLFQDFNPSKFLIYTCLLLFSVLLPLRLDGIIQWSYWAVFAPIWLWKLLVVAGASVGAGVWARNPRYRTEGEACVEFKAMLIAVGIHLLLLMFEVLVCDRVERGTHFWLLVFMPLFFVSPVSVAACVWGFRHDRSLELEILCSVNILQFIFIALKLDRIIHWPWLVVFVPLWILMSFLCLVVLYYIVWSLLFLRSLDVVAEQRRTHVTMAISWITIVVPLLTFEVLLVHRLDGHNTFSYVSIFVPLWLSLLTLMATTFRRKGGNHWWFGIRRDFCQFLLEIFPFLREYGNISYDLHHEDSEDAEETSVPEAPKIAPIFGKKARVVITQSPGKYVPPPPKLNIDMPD
# UniProt P21980: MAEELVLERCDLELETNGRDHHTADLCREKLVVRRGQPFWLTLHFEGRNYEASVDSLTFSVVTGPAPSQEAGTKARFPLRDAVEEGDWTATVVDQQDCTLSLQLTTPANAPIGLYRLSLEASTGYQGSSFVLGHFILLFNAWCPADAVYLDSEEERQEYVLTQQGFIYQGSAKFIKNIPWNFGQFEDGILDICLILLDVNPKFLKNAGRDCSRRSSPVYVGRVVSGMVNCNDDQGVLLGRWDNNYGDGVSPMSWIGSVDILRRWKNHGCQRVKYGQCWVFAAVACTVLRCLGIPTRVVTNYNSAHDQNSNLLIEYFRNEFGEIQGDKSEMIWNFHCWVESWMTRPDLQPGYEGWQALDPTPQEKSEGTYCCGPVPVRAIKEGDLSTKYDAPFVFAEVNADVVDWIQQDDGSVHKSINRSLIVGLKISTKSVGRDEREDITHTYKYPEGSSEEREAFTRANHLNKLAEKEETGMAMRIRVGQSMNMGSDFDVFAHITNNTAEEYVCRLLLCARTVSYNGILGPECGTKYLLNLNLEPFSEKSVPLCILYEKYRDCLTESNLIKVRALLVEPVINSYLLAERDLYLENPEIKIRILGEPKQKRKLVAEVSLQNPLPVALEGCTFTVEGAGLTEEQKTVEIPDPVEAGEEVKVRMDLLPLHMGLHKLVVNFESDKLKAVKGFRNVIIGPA
# UniProt P04183: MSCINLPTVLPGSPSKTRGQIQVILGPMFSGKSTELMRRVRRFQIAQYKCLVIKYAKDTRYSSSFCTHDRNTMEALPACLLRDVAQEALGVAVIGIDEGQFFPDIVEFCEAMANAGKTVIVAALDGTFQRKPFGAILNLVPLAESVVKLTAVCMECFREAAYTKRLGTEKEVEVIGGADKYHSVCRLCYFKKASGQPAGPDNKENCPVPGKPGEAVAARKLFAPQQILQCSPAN
# UniProt Q8WUY1: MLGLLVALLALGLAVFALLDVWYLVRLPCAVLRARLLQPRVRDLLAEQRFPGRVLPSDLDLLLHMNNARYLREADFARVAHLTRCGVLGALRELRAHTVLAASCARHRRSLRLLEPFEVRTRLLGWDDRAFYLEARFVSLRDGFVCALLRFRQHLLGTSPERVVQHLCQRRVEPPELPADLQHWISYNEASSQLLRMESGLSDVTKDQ
# UniProt Q9BVV7: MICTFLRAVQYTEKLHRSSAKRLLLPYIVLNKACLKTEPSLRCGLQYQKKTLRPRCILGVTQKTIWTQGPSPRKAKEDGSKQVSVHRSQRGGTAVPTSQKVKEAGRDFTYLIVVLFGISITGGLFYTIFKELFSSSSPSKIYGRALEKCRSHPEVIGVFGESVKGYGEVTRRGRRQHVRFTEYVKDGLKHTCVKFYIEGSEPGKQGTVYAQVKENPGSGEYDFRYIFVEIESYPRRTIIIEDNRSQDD
# UniProt Q9UM00: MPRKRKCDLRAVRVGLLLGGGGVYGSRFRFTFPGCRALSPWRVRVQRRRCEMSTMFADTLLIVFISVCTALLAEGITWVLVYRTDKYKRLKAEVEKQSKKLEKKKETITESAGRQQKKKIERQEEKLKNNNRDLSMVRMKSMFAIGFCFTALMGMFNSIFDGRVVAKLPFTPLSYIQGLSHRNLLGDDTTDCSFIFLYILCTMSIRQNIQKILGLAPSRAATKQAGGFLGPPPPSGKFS
# UniProt Q5TEJ8: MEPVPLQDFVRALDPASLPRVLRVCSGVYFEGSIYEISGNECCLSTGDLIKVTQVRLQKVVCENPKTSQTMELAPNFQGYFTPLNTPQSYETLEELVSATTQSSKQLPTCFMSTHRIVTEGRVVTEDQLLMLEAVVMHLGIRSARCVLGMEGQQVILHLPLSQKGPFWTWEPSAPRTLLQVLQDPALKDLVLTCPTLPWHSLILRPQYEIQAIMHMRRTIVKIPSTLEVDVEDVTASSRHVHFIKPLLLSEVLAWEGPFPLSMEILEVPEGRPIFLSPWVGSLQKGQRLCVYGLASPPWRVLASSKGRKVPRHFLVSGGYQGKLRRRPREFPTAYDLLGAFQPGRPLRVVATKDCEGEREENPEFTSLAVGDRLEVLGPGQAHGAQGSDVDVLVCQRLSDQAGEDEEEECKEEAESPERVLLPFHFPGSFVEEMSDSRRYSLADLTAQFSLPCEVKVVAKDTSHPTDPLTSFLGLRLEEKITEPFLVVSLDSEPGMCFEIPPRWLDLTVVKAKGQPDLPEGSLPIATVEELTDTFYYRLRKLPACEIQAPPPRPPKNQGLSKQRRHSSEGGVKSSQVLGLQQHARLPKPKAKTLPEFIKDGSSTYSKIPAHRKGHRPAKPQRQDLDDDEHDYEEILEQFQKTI
# UniProt P01033: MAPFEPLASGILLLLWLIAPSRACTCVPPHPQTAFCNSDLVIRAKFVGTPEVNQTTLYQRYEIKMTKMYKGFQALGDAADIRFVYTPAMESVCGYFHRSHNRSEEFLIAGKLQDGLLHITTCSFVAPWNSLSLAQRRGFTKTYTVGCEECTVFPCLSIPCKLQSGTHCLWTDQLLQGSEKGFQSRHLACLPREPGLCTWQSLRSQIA
# UniProt Q96EK4, whole entry, looked up: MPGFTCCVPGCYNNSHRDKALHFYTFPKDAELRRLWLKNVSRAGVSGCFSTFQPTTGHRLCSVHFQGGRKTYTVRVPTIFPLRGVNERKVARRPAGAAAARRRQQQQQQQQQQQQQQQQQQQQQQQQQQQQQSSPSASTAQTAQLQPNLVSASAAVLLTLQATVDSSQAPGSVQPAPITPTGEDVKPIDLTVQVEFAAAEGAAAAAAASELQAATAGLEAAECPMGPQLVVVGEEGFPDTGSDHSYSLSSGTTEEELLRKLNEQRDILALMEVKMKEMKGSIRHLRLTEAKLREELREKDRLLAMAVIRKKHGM
# UniProt Q12893: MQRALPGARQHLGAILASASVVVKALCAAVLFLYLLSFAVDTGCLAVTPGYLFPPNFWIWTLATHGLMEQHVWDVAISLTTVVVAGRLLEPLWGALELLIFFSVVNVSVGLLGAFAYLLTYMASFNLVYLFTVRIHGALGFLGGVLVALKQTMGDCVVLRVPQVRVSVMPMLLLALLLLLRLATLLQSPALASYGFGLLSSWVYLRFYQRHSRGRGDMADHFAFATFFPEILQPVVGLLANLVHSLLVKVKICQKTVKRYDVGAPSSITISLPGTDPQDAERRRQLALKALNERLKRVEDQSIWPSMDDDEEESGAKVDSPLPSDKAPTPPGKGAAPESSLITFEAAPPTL
# UniProt Q9BXJ8: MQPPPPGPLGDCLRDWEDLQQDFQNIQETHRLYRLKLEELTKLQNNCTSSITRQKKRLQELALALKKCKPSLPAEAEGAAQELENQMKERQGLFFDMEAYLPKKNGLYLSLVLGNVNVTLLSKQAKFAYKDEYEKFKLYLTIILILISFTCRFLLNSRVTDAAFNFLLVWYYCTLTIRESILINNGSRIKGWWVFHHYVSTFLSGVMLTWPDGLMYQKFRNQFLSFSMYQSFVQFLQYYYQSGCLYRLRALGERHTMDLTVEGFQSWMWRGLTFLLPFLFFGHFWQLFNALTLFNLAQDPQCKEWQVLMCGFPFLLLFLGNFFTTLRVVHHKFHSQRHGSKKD
# UniProt Q9BVC6: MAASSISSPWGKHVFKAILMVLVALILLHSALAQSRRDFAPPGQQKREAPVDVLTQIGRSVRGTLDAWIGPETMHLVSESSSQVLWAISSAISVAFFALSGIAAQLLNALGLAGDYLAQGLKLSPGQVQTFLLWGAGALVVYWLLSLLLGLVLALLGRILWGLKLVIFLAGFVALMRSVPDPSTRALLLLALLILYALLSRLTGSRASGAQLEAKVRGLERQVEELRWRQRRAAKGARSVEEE
# UniProt P17152: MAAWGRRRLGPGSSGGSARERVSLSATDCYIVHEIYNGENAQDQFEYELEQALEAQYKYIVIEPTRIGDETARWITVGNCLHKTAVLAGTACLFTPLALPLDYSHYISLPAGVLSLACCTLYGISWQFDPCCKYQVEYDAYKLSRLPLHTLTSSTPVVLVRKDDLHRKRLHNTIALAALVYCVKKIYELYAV
# UniProt Q9BTF0: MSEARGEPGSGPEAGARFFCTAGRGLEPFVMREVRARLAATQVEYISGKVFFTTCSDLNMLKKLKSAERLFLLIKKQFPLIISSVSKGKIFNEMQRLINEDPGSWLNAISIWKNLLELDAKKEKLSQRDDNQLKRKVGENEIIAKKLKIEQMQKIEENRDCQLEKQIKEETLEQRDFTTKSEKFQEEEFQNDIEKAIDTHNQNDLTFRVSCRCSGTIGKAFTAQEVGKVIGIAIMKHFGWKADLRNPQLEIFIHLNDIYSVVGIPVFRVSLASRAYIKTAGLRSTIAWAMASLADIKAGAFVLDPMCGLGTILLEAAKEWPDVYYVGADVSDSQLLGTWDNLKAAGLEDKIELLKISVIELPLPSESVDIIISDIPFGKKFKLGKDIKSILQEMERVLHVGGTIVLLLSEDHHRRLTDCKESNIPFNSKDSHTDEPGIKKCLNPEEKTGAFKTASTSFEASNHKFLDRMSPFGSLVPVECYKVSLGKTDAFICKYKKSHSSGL
# UniProt Q9NUM4, whole entry, looked up: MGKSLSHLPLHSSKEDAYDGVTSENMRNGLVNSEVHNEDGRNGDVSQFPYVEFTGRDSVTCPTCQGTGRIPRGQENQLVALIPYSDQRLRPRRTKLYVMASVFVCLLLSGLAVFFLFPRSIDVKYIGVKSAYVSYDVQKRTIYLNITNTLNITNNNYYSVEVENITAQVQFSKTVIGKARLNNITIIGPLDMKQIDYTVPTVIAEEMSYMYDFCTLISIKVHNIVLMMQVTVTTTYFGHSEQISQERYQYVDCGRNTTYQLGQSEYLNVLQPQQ
# UniProt Q13769: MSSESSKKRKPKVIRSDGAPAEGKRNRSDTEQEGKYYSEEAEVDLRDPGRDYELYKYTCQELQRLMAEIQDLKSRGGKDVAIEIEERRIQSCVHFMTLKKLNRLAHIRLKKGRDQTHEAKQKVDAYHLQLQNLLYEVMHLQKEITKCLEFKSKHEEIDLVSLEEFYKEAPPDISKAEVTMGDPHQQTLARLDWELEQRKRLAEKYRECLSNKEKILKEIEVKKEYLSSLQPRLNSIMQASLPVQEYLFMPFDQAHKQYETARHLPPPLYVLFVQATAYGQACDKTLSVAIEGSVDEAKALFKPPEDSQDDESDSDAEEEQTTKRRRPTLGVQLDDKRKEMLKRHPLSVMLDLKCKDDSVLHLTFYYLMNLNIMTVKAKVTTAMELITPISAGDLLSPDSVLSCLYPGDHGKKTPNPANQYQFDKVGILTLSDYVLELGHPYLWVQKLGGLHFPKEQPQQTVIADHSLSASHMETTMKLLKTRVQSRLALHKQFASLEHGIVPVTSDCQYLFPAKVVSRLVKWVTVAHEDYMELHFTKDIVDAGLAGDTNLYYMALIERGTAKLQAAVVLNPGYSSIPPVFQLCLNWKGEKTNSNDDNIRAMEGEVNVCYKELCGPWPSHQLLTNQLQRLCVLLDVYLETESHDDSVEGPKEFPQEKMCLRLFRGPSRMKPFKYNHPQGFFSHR
# UniProt Q8N9M5: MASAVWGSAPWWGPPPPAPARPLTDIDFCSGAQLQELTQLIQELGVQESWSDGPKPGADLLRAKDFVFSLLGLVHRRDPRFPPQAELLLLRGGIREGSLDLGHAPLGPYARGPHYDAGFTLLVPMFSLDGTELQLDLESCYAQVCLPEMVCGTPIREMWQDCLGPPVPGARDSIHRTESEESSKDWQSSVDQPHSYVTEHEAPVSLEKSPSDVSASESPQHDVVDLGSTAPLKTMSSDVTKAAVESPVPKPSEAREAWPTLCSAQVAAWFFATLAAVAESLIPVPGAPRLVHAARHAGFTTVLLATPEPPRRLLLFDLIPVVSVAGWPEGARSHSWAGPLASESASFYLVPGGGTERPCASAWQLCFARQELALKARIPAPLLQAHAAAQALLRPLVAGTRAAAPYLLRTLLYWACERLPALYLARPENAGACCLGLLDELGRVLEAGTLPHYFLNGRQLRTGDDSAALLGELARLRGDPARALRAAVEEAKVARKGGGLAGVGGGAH
# The other results are listed elsewhere or left out.
# How the values were obtained:
# Assay in all cases: log2 fold change, soluble protein after heating vs DMSO (PISA); higher = thermal stabilisation; K562 lysate, 10 uM; active = over 0.2 and 3.5 SD of the protein, either way, in both replicates (recomputed)
# [1] = compound: C1=CC=C(C=C1)[C@H](COC2=CC3=C(C=C2)NC(=O)N3)NC(=O)C4=CC=CN(C4=O)CC5=CC(=C(C=C5)F)F
# Summary of the method: (§1)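 To prepare the extract, K562 pellets were dounce-homogenised in PBS pH 7.4 with 1 mM MgCl2, giving crude material at 1 mg/mL protein. This was treated with 10 μM compound for 30 min, then heated in aliquots for 3 min over 48°C-58°C before pooling and addition of NP-40 to 0.5% at 4°C. Centrifugation at 21,000xg for 90 min left soluble protein in the supernatant, which TMTpro 16plex LC-MS/MS quantified with equalised channel sums. Results are log-two fold changes in thermal stability compared with solvent controls, from duplicates.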
# [2] = compound: CC1=C(SC2=C1C(=N[C@H](C3=NN=C(N32)C)CC(=O)N)C4=CC=C(C=C4)Cl)C
# Summary of the method: as §1
# [3] = compound: CC1=C2C(=CC=C1)N=C(N(C2=O)C3=CC=CC=C3C)CN4C=NC5=C(N=CN=C54)N
# Summary of the method: as §1
# [4] = compound: Cc1sc2c(c1C)C(c1ccc(Cl)cc1)=N[C@@H](CC(=O)OC(C)(C)C)c1nnc(C)n1-2
# Summary of the method: as §1
# [5] = compound: c1ccc([C@@H]2C[C@H]2NC2CCNCC2)cc1
# Summary of the method: as §1
Target,log2 fold change [1],log2 fold change [2],log2 fold change [3],log2 fold change [4],log2 fold change [5]
THAP9 (UniProt Q9H5L6),inactive: 0.024,inactive: 0.039,inactive: 0.165,inactive: -0.194,inactive: -0.284
TMEM104 (UniProt Q8NE00),inactive: 0.081,inactive: 0.031,inactive: -0.194,–,inactive: 0.187
TMBIM6 isoform 2 (UniProt P55061),inactive: -0.039,inactive: 0.012,inactive: 0.105,inactive: 0.026,inactive: 0.012
TMEM161B (UniProt Q8NDZ6),inactive: -0.07,inactive: -0.052,inactive: -0.076,–,inactive: -0.025
TICAM2 isoform 2 (UniProt Q86XR7),inactive: 0.016,inactive: 0.011,inactive: 0.004,inactive: -0.008,inactive: -0.008
TMEM168 (UniProt Q9H0V1),inactive: 0.002,inactive: 0.017,inactive: -0.011,inactive: -0.043,inactive: -0.04
TMEM177 (UniProt Q53S58),inactive: 0.002,inactive: -0.009,inactive: 0.015,–,inactive: 0.068
TMEM185B (UniProt Q9H7F4),inactive: 0.014,inactive: 0.007,inactive: -0.017,inactive: -0.06,inactive: 0.07
TGM2 (UniProt P21980),inactive: 0.017,inactive: 0.006,inactive: 0.017,inactive: -0.017,inactive: -0.004
TMEM167B (UniProt Q9NRX6),inactive: 0.021,inactive: -0.032,inactive: 0.036,–,inactive: -0.187
TK1 (UniProt P04183),inactive: 0.006,inactive: 0.037,inactive: -0.017,inactive: -0.045,inactive: -0.116
TIMM29 (UniProt Q9BSF4),inactive: 0.043,inactive: 0.035,inactive: 0.021,inactive: -0.035,inactive: -0.067
TJP1 isoform 2 (UniProt Q07157),inactive: 0.048,inactive: 0.02,inactive: 0,inactive: 0.061,inactive: -0.009
TMCO6 isoform 2 (UniProt Q96DC7),inactive: -0.036,inactive: 0.068,inactive: -0.034,inactive: 0.119,inactive: 0.13
TMED1 (UniProt Q13445),inactive: -0.014,inactive: -0.011,inactive: 0.036,inactive: -0.143,inactive: 0.018
THEM6 (UniProt Q8WUY1),inactive: -0.01,inactive: -0.006,inactive: -0.014,inactive: 0.062,inactive: 0.008
TMEM160 (UniProt Q9NX00),inactive: -0.031,inactive: -0.015,inactive: 0.12,inactive: 0.057,inactive: 0.032
TIMM21 (UniProt Q9BVV7),inactive: 0.034,inactive: 0.01,inactive: -0.011,inactive: 0.015,inactive: 0.008
TMCO1 (UniProt Q9UM00),inactive: -0.03,inactive: 0.022,inactive: 0.052,inactive: -0.003,inactive: 0.157
THEMIS2 (UniProt Q5TEJ8),inactive: 0.046,inactive: 0,inactive: 0.019,inactive: 0.052,inactive: -0.054
TIMP1 (UniProt P01033),inactive: 0.077,inactive: -0.003,inactive: -0.014,inactive: -0.023,inactive: -0.046

Target,log2 fold change [1],log2 fold change [2],log2 fold change [3],log2 fold change [4],log2 fold change [5]
TIMM10B (UniProt Q9Y5J6),inactive: 0.054,inactive: -0.149,inactive: -0.105,inactive: -0.097,inactive: 0.092
TLE4 isoform 3 (UniProt Q04727),inactive: 0.011,inactive: -0.012,inactive: -0.031,inactive: 0.007,inactive: -0.05
THAP11 (UniProt Q96EK4),inactive: -0.008,inactive: -0.151,inactive: -0.144,inactive: -0.02,inactive: 0.058
TMEM115 (UniProt Q12893),inactive: 0.021,inactive: 0.053,inactive: -0.007,inactive: -0.045,inactive: -0.068
TK2 isoform 6 (UniProt O00142),inactive: -0.007,inactive: 0.003,inactive: 0.059,inactive: -0.115,inactive: -0.143
TMCO3 (UniProt Q6UWJ1),inactive: -0.067,inactive: 0.102,inactive: -0.168,–,inactive: -0.005
TIMMDC1 (UniProt Q9NPL8),inactive: -0.009,inactive: 0.009,inactive: 0.016,inactive: -0.055,inactive: -0.026
TMEM120A (UniProt Q9BXJ8),inactive: -0.083,inactive: -0.003,inactive: 0.316,inactive: -0.198,inactive: 0.046
TMEM109 (UniProt Q9BVC6),inactive: 0.007,inactive: -0.023,inactive: -0.063,inactive: 0,inactive: -0.048
TLN1 (UniProt Q9Y490),inactive: -0.001,inactive: 0.003,inactive: -0.012,inactive: 0.009,inactive: 0.003
TJP1 (UniProt G3V1L9),inactive: -0.025,inactive: -0.014,inactive: 0.127,inactive: 0.009,inactive: -0.007
TMEM11 (UniProt P17152),inactive: -0.013,inactive: -0.107,inactive: -0.006,inactive: -0.024,inactive: 0.015
THUMPD2 (UniProt Q9BTF0),inactive: 0.048,inactive: -0.004,inactive: -0.023,inactive: -0.059,inactive: -0.004
TK1 (UniProt K7ERV3),inactive: -0.044,inactive: 0.007,inactive: -0.017,inactive: -0.002,inactive: -0.037
THOC1 (UniProt Q96FV9),inactive: 0.002,inactive: -0.032,inactive: 0.007,inactive: 0.02,inactive: -0.003
TMEM106B (UniProt Q9NUM4),inactive: -0.034,inactive: 0.014,inactive: -0.038,inactive: -0.049,inactive: 0.031
THOC5 (UniProt Q13769),inactive: 0.026,inactive: 0.048,inactive: 0.016,inactive: -0.01,inactive: 0.006
TMEM161A (UniProt Q9NX61),inactive: -0.082,inactive: -0.208,inactive: 0.139,inactive: -0.137,inactive: 0.175
TMEM184B (UniProt Q9Y519),–,–,–,inactive: -0.037,–
TMEM102 (UniProt Q8N9M5),–,–,inactive: -0.002,–,–
TLE3 isoform 5 (UniProt Q04726),inactive: -0.061,active: -0.454,–,inactive: -0.069,inactive: 0.199

# Single values from the results shown:
# Value of TMEM11 (UniProt P17152) under log2 fold change [5]: inactive: 0.015
# Value of TMCO3 (UniProt Q6UWJ1) under log2 fold change [2]: inactive: 0.102
# Value of TMEM120A (UniProt Q9BXJ8) under log2 fold change [2]: inactive: -0.003
